Drawing on patent US20140178329A1, this text covers binding for one substance.

The chains behind the UniProt entries cited, without tags or fusion partners. Where a name states a change or a piece, a line headed by the entry shows the natural chain unless it says otherwise.
UniProt O75888: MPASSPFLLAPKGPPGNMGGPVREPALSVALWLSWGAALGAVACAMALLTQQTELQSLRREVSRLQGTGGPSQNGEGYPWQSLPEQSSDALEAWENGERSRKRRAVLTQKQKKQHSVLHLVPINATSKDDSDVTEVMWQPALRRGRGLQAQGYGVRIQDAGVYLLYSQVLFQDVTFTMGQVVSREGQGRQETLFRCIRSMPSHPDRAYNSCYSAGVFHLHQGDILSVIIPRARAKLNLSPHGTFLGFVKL

These are yes or no findings as the source states them, for the method shown. Where a sequence is shown, tags or fusion partners need not be part of it.

Assay [1] addresses T1, mouse TACI-Fc (R&D Systems) (mouse; human) (UniProt Q9ET35).
T1 sequence (looked up): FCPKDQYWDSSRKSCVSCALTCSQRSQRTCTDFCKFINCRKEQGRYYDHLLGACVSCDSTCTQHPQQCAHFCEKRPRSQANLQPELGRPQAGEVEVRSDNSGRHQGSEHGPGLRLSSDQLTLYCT
Briefly: SPR (Biacore), FLAG-APRIL captured on anti-FLAG M2, mouse TACI-Fc injected at 1, 5, 10 and 25 nM [murine TACI].

Assay [2] has as its target T1, mouse TACI-Fc (R&D Systems) (mouse; human). The experiment in a line: SPR (Biacore), FLAG-APRIL captured by anti-FLAG M2, receptor-Fc injected. (In general: SPR reads the build-up and loss of mass on a sensor chip optically.)
Assay [3] shares this target. The experiment in a line: condition: first (most concentrated) conditioned medium of the series; receptor-binding ELISA, mouse TACI-Fc coated [BCMA selective, Ms TACI-Fc coated]. (In general: An ELISA detects its analyte on a solid surface through an enzyme-linked reagent.)

“APRIL-R206E (FLAG-tagged soluble variant) (from UniProt O75888 105-250) (ligand)”: the values for the binding result in assay [1], in assay [2] and in assay [3] were “no binding (tested: 25 nM)”, “no binding (tested: 1-50 nM)” and “no binding”, respectively.
